Data as given in PubChem BioAssay AID493014 (National Center for Advancing Translational Sciences (NCATS), 2011).
This is one part of the list. Shown are side measurements of this screen, not its main read-out; they come without a call. Most of these compounds were active or inconclusive in the main read-out, so they are no random draw. Potencies come from curve fits of mixed quality, noted in brackets.

Test: qHTS Assay to Find Inhibitors of Chronic Active B-Cell Receptor Signaling
Settings: ABC-DLBCL IkBa-CBG/CBR reporter, luminescence ratio (green luciferase fused to IkBa over red control in TMD8 lymphoma cells), 4 h
Procedure, shortened: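 Concentration-response series (up to 46 uM) were applied to TMD8 dual-reporter cells for 4 h at 37C with doxycycline. Green/red ratio, after filter-overlap correction, defined %Activity; red signal alone was normalised to basal cells and zero luminescence.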

[1] = measured here: CBR red luminescence, cell number
[2] = measured here: IkBa-CBG green luminescence

SMILES	AC50 [1]	AC50 [2]
CC(C(=O)NC1CCCC1)N(C(=O)Cn1nnc(-c2ccc(F)cc2)n1)c1ccccc1F (stereo not given)	8.91 µM [falling, partial curve, poor fit]	–
COc1cc(OC)cc(C(=O)N/N=C/c2ccc(OC)c(COc3ccc(F)cc3)c2)c1	–	11.2 µM [falling, single point]
CC(=O)Nc1sc2c(c1C(c1ccccc1)N1CCOCC1)CCCC2 (stereo not given)	0.731 µM [falling, full curve, poor fit]	–
O=C(CSc1nnc(-c2ccccc2)o1)c1ccc2c(c1)OCCO2	3.55 µM [rising, single point]	–
CCOC(=O)c1ccc(Nc2cc(C)nc(-c3ccccc3)n2)cc1	1.26 µM [falling, full curve]	–
Oc1ccc(Br)cc1-c1ccn[nH]1	29.1 µM [rising, partial curve, poor fit]	–
O=C(Nc1cccc(S(=O)(=O)N2CCCCC2)c1)C1CC(=O)N(c2ccc3c(c2)OCCO3)C1 (stereo not given)	10 µM [falling, partial curve, poor fit]	–
COc1ccc(OCCOC(=O)c2ccc(-n3cnnn3)cc2)cc1	7.31 µM [falling, single point]	–
COc1ccc(OC)c(NC(=O)CSc2nnc(CNC(=O)COc3ccc(Cl)cc3)o2)c1	35.5 µM [falling, single point]	–
Cc1cc2nc(N3C(=O)CNC3=S)sc2cc1C	17.8 µM [falling, single point]	–
COc1cc2cc(CN(Cc3cccnc3)C(=O)NCc3ccccc3)c(=O)[nH]c2cc1OC	0.58 µM [rising, partial curve, poor fit]	–
Cc1c(C(=O)Nc2cccc(S(=O)(=O)N3CCOCC3)c2)oc2ccc(Br)cc12	0.731 µM [rising, partial curve, poor fit]	–
O=c1cccccc1NN=C1CCCCCC1	0.631 µM [rising, partial curve, poor fit]	–
CCN(CC)C(=O)c1[nH]cnc1C(=O)Nc1cccc(Cl)c1	4.11 µM [rising, partial curve]	–
Cc1nc(C)c(-c2ccc(SCC(=O)Nc3cccc(Cl)c3C)nn2)s1	20 µM [falling, partial curve, poor fit]	–
O=C1CCCC(=O)N1c1ccc(O)cc1	14.1 µM [rising, partial curve, poor fit]	–
O=[N+]([O-])c1cccc(-c2nnc(C3CC3)o2)c1	35.5 µM [rising, single point]	–
CCC(=O)NC(=S)N1CCN(c2ccc([N+](=O)[O-])cc2Cl)CC1	0.0891 µM [falling, full curve, poor fit]	–
Cc1ccc2nc(-c3cccc(NC(=O)c4ccco4)c3)[nH]c2c1	0.731 µM [falling, partial curve, poor fit]	–
Cc1ccc2[nH]c(=O)c(CN(CCCN3CCOCC3)C(=O)Nc3ccc(Cl)cc3)cc2c1	10 µM [rising, partial curve]	–

SMILES	AC50 [1]	AC50 [2]
Clc1ccc(CSc2nnc(-c3cccnc3)n2Cc2ccco2)c(Cl)c1	35.5 µM [falling, partial curve, poor fit]	–
Cc1cc(C)c(C)c(OCC(=O)O/N=C(\N)c2ccncc2)c1	0.126 µM [rising, full curve, poor fit]	–
CN(C)S(=O)(=O)Oc1ccc(C(=O)Nc2cccc(Cl)c2)cc1	12.6 µM [falling, partial curve]	–
Cc1ccc(OCC(=O)Nc2ccc(N3CCN(C(=O)c4ccco4)CC3)cc2)c(C)c1	35.5 µM [falling, partial curve, poor fit]	–
O=C(Nc1cc(F)cc(F)c1)c1ccc(NCCCN2CCCCCC2)c([N+](=O)[O-])c1	22.4 µM [falling, partial curve, poor fit]	–
Cc1ccc(C(=O)N/N=C/c2c(O)ccc3ccccc23)cn1	2.82 µM [falling, full curve, poor fit]	–
COc1cc(NC(=O)c2c(F)cccc2F)nc(OC)n1	10 µM [falling, partial curve, poor fit]	–
CCOc1ccc(NCc2nnc(SCc3ccccc3Cl)n2-c2ccccc2)cc1	2.82 µM [falling, single point]	–
CC1=C(C(=O)Nc2ccc(C)cc2C)C(c2cccc(Cl)c2)n2nc(C(=O)OC(C)C)nc2N1 (stereo not given)	7.31 µM [rising, partial curve, poor fit]	–
Cc1sc2nc(CN3CCOCC3)nc(Oc3ccc(NC(=O)c4ccco4)cc3)c2c1C	31.6 µM [falling, single point]	–
CCOc1ccccc1N1CCN(C2=C(NS(=O)(=O)c3cccs3)C(=O)c3ccccc3C2=O)CC1	14.6 µM [rising, partial curve, poor fit]	–
O=c1[nH]c(SCC2CCCCO2)nc2ccccc12 (stereo not given)	11.2 µM [falling, partial curve, poor fit]	–
CC(C)CC(=O)NS(=O)(=O)c1ccc(NC(=O)c2ccco2)cc1	3.55 µM [rising, single point]	–
C#CCNC(=O)C1=C[C@@H](c2ccc(C(F)(F)F)cc2)C[C@@H](OCCCCO)O1	3.16 µM [rising, partial curve, poor fit]	–
CN(CC(=O)Nc1ccccc1Cl)C(=O)COC(=O)c1ccccc1[N+](=O)[O-]	9.2 µM [rising, partial curve]	–
Cc1cc(C(=O)CSc2nn3c(=O)c(C(C)(C)C)nnc3s2)c(C)n1C1CC1	35.5 µM [falling, single point]	–
Fc1ccccc1CSc1ncnc2c1oc1ccccc12	8.91 µM [rising, partial curve, poor fit]	–
CCc1cc(C(=O)OC)c(NC(=O)CCC(=O)O)s1	18.4 µM [rising, single point]	–
CN(C)S(=O)(=O)c1ccc(C(=O)Nc2nc3ccccc3[nH]2)cc1	–	2.82 µM [rising, full curve, poor fit]
O=C1Nc2cc(C(F)(F)F)ccc2N2CCCCC12 (stereo not given)	35.5 µM [rising, single point]	–

Shown comma-delimited: 2 of the compounds above.
SMILES,AC50 [1],AC50 [2]
O=c1[nH]c(SCC2CCCCO2)nc2ccccc12 (stereo not given),"11.2 µM [falling, partial curve, poor fit]",–
O=C1Nc2cc(C(F)(F)F)ccc2N2CCCCC12 (stereo not given),"35.5 µM [rising, single point]",–
